According to the supplement of paper PMC12067093, “Discovery and optimisation of a covalent ligand for TRIM25 and its application to targeted protein ubiquitination” (Chemical Science, 2025):
This is one part of the list.

Protein sequences, listed by entry. Tags and fused reporters are not part of them. Lines headed by an entry give the natural chain unless they say otherwise; changes in a name come on top.
UniProt P49903: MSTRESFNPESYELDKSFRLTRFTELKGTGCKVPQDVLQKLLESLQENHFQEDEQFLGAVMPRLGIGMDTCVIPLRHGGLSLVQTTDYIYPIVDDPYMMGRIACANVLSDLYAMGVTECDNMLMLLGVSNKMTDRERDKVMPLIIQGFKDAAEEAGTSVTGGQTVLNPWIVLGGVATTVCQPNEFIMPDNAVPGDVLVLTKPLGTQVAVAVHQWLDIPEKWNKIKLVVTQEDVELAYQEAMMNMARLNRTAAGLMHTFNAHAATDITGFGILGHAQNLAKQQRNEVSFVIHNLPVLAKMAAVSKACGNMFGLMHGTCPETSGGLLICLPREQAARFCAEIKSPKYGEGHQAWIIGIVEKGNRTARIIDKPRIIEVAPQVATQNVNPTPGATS
UniProt O00560: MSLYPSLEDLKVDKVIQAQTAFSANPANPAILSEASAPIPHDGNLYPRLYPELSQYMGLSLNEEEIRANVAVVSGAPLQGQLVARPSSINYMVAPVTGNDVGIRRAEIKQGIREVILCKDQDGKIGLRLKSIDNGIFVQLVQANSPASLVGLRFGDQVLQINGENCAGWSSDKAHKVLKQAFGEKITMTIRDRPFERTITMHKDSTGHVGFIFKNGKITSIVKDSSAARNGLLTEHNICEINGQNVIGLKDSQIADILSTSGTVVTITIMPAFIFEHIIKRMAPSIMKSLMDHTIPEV

Compound: CC1Cc2ccccc2N1C(=O)C1CCCN(C1)C(=O)CCl (mixture of isomers) [TRIM25 ligand 11 (diastereomer mixture)]
Assay: probe-labelled cysteine peptide fold change vs DMSO (competition) (log2 fold change); higher = less target engagement (more negative = stronger competition)
Settings: THP-1, incubation time: 4 h
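Further: competitive chemoproteomic profiling in live THP-1 cells with an iodoacetamide desthiobiotin (IA-DTB) probe, comparing probe-labelled peptide intensities in compound-treated cells against DMSO-treated controls.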

Target | probe-labelled cysteine peptide fold change (10 µM) | probe-labelled cysteine peptide fold change (50 µM)
SAMHD1_Q9Y3Z3_266_WTHEQGSVMMFEHLINSNGIKPVMEQYGLIPEEDICFIK (UniProt Q9Y3Z3) | 0.0321 | -0.113
SAMHD1_Q9Y3Z3_522_NPIDHVSFYCK (UniProt Q9Y3Z3) | -0.0047 | -0.141
SEPHS1_P49903_71_LGIGMDTCVIPLR (UniProt P49903) | -0.0328 | -0.0933
SDCBP_O00560_166_FGDQVLQINGENCAGWSSDK (UniProt O00560) | -0.0251 | 0.0173
